The target of this assay is fatty acid synthase (FASN) (human (endogenous in DG75)) (UniProt P49327). In words: co-IP.

The chains behind the UniProt entries cited, without tags or fusion partners.
UniProt P49327: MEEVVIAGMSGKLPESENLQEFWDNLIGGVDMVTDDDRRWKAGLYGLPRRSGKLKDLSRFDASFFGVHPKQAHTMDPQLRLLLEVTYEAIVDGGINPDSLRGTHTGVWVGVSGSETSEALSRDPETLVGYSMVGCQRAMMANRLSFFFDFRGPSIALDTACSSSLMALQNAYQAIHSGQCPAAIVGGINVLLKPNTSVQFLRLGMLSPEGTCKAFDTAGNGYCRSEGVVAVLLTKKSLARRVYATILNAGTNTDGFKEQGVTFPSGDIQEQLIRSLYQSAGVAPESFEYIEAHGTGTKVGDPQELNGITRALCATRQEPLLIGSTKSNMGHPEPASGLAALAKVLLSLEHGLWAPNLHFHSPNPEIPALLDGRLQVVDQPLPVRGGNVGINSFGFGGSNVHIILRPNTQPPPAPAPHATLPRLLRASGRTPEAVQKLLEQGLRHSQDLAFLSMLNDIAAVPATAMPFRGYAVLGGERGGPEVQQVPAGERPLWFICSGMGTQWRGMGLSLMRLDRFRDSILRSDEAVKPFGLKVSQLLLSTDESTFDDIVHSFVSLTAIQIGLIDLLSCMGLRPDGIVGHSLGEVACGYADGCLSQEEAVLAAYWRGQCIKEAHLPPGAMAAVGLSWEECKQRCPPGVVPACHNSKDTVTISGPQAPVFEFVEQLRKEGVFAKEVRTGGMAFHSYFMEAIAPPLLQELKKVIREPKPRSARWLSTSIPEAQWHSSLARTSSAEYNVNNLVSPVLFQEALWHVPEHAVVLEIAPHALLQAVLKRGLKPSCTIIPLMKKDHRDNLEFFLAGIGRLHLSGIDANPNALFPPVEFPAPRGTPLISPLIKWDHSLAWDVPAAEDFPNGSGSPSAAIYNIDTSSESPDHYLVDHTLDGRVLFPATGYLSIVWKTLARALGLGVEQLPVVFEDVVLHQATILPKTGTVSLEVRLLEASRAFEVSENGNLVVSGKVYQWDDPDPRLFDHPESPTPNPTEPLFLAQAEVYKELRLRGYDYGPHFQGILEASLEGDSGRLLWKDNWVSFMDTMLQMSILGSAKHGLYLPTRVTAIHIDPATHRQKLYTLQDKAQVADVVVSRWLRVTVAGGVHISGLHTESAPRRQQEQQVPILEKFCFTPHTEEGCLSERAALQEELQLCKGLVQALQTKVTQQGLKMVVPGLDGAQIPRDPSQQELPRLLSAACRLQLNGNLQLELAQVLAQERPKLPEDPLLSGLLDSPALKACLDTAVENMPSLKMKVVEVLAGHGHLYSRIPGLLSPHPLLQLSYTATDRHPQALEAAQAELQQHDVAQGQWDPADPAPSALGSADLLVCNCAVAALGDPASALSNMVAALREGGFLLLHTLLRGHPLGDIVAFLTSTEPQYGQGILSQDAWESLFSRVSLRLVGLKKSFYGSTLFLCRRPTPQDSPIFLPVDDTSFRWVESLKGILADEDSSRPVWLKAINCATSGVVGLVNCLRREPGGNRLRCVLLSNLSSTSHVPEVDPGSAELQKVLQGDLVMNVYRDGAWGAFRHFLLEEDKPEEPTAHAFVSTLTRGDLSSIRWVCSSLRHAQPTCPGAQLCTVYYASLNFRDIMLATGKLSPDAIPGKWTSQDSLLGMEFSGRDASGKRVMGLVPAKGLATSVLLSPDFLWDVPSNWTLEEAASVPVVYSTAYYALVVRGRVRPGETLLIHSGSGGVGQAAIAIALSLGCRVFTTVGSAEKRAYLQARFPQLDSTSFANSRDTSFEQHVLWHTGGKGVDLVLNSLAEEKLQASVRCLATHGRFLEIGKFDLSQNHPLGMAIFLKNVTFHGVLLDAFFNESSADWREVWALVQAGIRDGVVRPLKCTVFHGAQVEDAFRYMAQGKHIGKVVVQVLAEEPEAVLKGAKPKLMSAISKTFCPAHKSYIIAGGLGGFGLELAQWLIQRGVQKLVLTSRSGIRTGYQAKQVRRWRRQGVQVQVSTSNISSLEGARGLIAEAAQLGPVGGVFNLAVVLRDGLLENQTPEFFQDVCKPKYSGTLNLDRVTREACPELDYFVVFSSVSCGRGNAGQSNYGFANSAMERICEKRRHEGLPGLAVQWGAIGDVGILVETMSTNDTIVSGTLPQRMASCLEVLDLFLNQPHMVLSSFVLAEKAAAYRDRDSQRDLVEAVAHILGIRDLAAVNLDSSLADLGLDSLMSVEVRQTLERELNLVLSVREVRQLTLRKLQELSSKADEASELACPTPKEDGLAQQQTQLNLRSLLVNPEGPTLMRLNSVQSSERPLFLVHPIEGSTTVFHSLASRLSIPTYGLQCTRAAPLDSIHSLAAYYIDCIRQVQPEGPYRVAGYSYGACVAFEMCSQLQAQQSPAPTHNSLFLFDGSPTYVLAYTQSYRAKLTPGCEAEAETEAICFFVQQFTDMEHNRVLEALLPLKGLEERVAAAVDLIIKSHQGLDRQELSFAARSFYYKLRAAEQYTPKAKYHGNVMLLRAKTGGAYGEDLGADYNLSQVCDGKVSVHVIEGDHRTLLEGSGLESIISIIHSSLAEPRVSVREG

The text below walks through data of article doi:10.1101/2019.12.15.876821.

No constants are given. Whether binding was seen depends on the method and setting. In cells and extracts the contact can be indirect. Some entries that bind do so weakly or less than the wild type.

B1: ubiquitin-specific peptidase 2a (USP2a) (enzyme, UniProt O75604-1 1-605)
chain: MSQLSSTLKRYTESARYTDAHYAKSGYGAYTPSSYGANLAASLLEKEKLGFKPVPTSSFLTRPRTYGPSSLLDYDRGRPLLRPDITGGGKRAESQTRGTERPLGSGLSGGSGFPYGVTNNCLSYLPINAYDQGVTLTQKLDSQSDLARDFSSLRTSDSYRIDPRNLGRSPMLARTRKELCTLQGLYQTASCPEYLVDYLENYGRKGSASQVPSQAPPSRVPEIISPTYRPIGRYTLWETGKGQAPGPSRSSSPGRDGMNSKSAQGLAGLRNLGNTCFMNSILQCLSNTRELRDYCLQRLYMRDLHHGSNAHTALVEEFAKLIQTIWTSSPNDVVSPSEFKTQIQRYAPRFVGYNQQDAQEFLRFLLDGLHNEVNRVTLRPKSNPENLDHLPDDEKGRQMWRKYLEREDSRIGDLFVGQLKSSLTCTDCGYCSTVFDPFWDLSLPIAKRGYPEVTLMDCMRLFTKEDVLDGDEKPTCCRCRGRKRCIKKFSIQRFPKILVLHLKRFSESRIRTSKLTTFVNFPLRDLDLREFASENTNHAVYNLYAVSNHSGTTMGGHYTAYCRSPGTGEWHTFNDSSVTPMSSSQVRTSDAYLLFYELASPPSRM
For the molecule B1, the binding result is “binds”.
